Reference: patent WO2009140361A1
Like-named read-outs stand apart in the source and are kept apart here. These are yes or no findings as the source states them, for the method shown. Some binding calls cover weakened binding; strength is not graded here. For some of these results: Tags and fused reporters may be left off the sequences shown. One block for each molecule: values may come before it.

Protein sequences, listed by entry. Tags and fused reporters are not part of them. Lines headed by an entry give the natural chain unless they say otherwise; changes in a name come on top. Residues count along the entry.
UniProt Q8N423: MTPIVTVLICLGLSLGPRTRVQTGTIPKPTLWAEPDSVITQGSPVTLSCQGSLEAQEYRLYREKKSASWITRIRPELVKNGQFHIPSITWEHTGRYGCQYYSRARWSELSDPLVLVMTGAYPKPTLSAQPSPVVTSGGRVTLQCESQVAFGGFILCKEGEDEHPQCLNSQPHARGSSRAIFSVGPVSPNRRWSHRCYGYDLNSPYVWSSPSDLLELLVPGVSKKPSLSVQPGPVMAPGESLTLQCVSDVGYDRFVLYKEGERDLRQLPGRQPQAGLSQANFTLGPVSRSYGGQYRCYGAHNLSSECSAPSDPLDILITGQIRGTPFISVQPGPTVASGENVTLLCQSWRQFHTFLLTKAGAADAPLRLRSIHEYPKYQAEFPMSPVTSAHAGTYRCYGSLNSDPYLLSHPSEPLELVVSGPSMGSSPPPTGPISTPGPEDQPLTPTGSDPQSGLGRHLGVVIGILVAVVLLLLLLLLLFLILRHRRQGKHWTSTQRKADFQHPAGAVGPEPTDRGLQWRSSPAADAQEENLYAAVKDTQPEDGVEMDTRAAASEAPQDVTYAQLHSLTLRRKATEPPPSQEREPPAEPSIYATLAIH
UniProt Q9NQC3, residues 1055-1120: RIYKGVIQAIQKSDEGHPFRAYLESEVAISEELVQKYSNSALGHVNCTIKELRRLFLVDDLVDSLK

Columns and labels:
Test in all cases: expression cloning; AP-fusion bait (20-50 nM) on COS7 cells transfected with human cDNA, AP staining
[1] = target: Homo sapiens leukocyte immunoglobulin-like receptor, subfamily B (with TM and ITIM domains), member 2 (LILRB2) (human) (UniProt Q8N423)
[2] = target: T1, Nogo Receptor (human cDNA clone expressed on COS7 cells) (human) (UniProt Q9BZR6)
T1 sequence (looked up): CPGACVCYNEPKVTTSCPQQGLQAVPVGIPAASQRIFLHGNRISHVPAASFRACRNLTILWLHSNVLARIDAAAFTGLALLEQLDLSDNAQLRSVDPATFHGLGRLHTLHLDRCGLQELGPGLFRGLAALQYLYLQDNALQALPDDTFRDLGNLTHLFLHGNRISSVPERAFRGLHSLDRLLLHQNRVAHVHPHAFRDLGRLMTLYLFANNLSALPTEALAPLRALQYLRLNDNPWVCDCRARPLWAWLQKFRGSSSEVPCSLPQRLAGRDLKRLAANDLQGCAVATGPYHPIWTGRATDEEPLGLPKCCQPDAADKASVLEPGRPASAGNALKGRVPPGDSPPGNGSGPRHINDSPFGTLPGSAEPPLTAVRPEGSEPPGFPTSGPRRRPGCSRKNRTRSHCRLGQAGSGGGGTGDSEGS

[3] = target: T2, Homo sapiens hypothetical protein from clone 643 (LOC57228); alternative ORF homologous to SMAG (human) (UniProt Q0VAQ4)
T2 sequence (looked up): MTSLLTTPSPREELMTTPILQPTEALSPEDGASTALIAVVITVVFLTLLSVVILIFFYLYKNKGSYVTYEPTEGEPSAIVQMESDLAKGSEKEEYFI

[4] = target: T1, Nogo Receptor (human cDNA clone expressed on COS7 cells) (human); remark: listed apart in the source

binding [1]: binds
binding [2]: binds
Molecule: AP-Nogo66 (Alkaline Phosphatase fused to human Nogo66) (from UniProt Q9NQC3 1055-1120) (ligand)

binding [3]: binds
binding [4]: binds
B1: MAG-AP (human MAG fused to Alkaline Phosphatase) (ligand, UniProt P20916 20-516, looked up, not shown: large carriers)
chain: GHWGAWMPSSISAFEGTCVSIPCRFDFPDELRPAVVHGVWYFNSPYPKNYPPVVFKSRTQVVHESFQGRSRLLGDLGLRNCTLLLSNVSPELGGKYYFRGDLGGYNQYTFSEHSVLDIVNTPNIVVPPEVVAGTEVEVSCMVPDNCPELRPELSWLGHEGLGEPAVLGRLREDEGTWVQVSLLHFVPTREANGHRLGCQASFPNTTLQFEGYASMDVKYPPVIVEMNSSVEAIEGSHVSLLCGADSNPPPLLTWMRDGTVLREAVAESLLLELEEVTPAEDGVYACLAENAYGQDNRTVGLSVMYAPWKPTVNGTMVAVEGETVSILCSTQSNPDPILTIFKEKQILSTVIYESELQLELPAVSPEDDGEYWCVAENQYGQRATAFNLSVEFAPVLLLESHCAAARDTVQCLCVVKSNPEPSVAFELPSRNVTVNESEREFVYSERSGLVLTSILTLRGQAQAPPRVICTARNLYGAKSLELPFQGAHRLMWAKIGP
